The target of the test is T1, OsSAP6 fused to nLUC (pCAMBIA1300-nLUC-OsSAP6) (rice (Oryza sativa)) (UniProt Q852K5).
T1 sequence: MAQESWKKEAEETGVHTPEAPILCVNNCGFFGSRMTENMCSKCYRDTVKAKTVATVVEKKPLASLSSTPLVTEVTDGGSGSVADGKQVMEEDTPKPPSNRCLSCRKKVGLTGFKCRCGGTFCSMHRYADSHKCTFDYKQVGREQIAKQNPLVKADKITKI
The test is described as follows: split reporter; LUC complementation imaging (LCI): pCAMBIA1300-nLUC-OsSAP6 and pCAMBIA1300-cLUC-OsPK5 co-injected by Agrobacterium into N. benthamiana leaves, 48 h, chemiluminescence imaging after luciferin.

These are yes or no findings as the source states them, for the method shown. In cells and extracts the contact can be indirect. A result given as binding can be weak or reduced; the word gives no strength. Where a sequence is shown, tags or fusion partners need not be part of it.

For the substance “OsPK5 fused to cLUC (pCAMBIA1300-cLUC-OsPK5) (rice (Oryza sativa)) (enzyme)”, the binding entry is given as “binds”.
